Test results published in doi:10.1101/2020.04.11.036434.
Results are given in words; binding and its absence hold for the method and conditions named.

The chains behind the UniProt entries cited, without tags or fusion partners.
UniProt P60484: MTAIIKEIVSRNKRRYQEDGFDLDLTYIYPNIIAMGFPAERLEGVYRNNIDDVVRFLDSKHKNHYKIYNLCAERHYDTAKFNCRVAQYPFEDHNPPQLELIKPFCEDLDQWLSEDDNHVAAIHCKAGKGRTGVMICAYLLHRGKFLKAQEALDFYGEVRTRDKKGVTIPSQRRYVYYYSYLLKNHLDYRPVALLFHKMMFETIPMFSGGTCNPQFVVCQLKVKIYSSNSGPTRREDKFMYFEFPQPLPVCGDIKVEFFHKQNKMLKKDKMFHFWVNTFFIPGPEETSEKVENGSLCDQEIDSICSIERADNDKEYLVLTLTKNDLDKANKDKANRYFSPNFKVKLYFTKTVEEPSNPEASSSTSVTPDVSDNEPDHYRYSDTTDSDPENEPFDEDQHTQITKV
UniProt Q8TCU6: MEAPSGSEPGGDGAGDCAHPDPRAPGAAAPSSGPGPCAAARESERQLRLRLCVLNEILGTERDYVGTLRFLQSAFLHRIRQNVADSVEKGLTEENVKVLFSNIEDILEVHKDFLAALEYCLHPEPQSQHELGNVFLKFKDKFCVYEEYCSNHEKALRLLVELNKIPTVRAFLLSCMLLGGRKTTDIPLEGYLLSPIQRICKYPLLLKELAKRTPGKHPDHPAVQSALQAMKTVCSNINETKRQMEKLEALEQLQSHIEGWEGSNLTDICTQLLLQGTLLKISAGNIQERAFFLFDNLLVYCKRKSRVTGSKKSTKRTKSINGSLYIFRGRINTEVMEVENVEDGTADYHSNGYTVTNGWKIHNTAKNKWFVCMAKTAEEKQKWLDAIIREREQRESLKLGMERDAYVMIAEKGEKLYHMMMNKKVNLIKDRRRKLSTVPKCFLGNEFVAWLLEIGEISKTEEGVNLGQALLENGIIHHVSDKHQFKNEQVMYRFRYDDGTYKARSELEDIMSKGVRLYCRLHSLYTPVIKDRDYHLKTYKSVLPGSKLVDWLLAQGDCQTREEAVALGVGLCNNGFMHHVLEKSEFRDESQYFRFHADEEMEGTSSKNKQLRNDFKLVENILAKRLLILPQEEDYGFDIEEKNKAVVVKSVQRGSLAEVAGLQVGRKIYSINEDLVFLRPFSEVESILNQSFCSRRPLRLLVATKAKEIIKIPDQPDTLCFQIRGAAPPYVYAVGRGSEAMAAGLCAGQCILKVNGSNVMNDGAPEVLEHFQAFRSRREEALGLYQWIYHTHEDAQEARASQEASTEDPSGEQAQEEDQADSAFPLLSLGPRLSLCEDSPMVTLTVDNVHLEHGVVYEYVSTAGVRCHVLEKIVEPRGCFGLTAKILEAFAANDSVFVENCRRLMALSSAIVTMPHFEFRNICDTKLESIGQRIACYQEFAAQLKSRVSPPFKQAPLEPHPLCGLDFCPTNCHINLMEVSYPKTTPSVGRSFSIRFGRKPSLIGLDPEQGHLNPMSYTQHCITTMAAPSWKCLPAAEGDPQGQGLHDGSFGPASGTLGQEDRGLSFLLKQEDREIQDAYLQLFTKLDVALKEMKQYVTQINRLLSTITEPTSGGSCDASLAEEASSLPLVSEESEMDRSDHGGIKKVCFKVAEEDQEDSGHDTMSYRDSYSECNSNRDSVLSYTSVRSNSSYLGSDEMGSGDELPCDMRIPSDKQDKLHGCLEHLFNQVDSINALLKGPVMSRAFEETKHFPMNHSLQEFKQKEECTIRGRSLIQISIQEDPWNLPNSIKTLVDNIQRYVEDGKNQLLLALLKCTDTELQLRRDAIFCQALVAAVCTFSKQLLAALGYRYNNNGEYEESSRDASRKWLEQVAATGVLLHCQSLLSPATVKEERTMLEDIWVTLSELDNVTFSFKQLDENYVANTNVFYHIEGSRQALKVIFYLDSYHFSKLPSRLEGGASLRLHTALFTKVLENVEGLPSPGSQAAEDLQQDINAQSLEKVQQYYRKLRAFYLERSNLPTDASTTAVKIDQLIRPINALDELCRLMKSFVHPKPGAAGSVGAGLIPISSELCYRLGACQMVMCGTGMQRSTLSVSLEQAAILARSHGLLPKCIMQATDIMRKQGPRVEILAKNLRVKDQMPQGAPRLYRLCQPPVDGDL

Molecular target: PTEN (WT), recombinant insect-cell purified (UniProt P60484)
Experiment: SPR

With “P-Rex1 (WT) (from UniProt Q8TCU6 1-1659)” as the substance, how does the binding read?
Its binding is “no binding”.
